From PubChem BioAssay AID1053133 (Broad Institute, 2014)
This is one part of the list.

Experiment: Vaccinia orthopox stage-specific inhibition, primary screen, cell-based, single point (AID 1053133)
Details: Vaccinia-infected cells, mCherry/Venus stage reporter fluorescence; measured here: Venus reporter, other viral stage; stronger effect = lower value; concentration not given here

| SMILES | activity change (Venus) [%] |
| --- | --- |
| COc1ccc(CN2/C(=N\P(=O)(Oc3ccccc3)Oc3ccccc3)Cc3ccccc3C2C2CC2)cc1 (stereo unspecified) | -0.665 |
